The target in the assay is human full length cyclophilin D protein (His tag) (human) (UniProt P30405). The assay can be described thus: co-IP; mix of the two recombinant proteins, 20 µg/ml each in PBS, 2 h at room temperature; precipitated with anti-17β-HSD10 or anti-cypD antibody and Protein A-sepharose; immunoblot for the other protein; both purified.

Sequences of proteins named here, by UniProt entry; tags and fusion partners are left off. Residues count along the entry.
UniProt P30405, residues 30-207: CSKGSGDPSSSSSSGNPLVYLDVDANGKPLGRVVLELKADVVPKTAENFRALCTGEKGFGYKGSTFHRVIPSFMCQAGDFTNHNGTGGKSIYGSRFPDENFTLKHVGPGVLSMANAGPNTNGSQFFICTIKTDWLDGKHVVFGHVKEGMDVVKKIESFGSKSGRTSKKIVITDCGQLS

The values below come from article PMC7078148.

These are yes or no findings as the source states them, for the method shown. Some entries that bind do so weakly or less than the wild type. Sequences can lack the tags named with a protein.

B1: human full length recombinant 17β-hydroxysteroid dehydrogenase type 10 protein (His tag) (enzyme, UniProt Q99714 1-261)
chain: MAAACRSVKGLVAVITGGASGLGLATAERLVGQGASAVLLDLPNSGGEAQAKKLGNNCVFAPADVTSEKDVQTALALAKGKFGRVDVAVNCAGIAVASKTYNLKKGQTHTLEDFQRVLDVNLMGTFNVIRLVAGEMGQNEPDQGGQRGVIINTASVAAFEGQVGQAAYSASKGGIVGMTLPIARDLAPIGIRVMTIAPGLFGTPLLTSLPEKVCNFLASQVPFPSRLGDPAEYAHLVQAIIENPFLNGEVIRLDGAIRMQP
Consider B1, for which the binding entry is listed as “binds”.
